Measured values from patent publication US7439245B2, “Compounds” (Glaxo Group Limited, priority 2003, dated 2008).
Some entries share one result that the patent states for a list of compounds.

Protein sequences, listed by entry. Tags and fused reporters are not part of them.
UniProt P50406, whole entry: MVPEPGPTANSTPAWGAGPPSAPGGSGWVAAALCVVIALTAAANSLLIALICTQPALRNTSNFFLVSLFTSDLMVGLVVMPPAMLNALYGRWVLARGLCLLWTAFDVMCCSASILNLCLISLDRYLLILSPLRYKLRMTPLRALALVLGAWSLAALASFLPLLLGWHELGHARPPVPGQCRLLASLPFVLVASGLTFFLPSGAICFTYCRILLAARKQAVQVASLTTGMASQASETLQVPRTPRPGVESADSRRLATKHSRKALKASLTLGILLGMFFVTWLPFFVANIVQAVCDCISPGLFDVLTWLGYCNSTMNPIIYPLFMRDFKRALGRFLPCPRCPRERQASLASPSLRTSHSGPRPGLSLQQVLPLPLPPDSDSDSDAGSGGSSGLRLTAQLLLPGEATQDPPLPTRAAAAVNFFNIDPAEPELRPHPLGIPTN

Biological target: T1, human cloned 5-HT6 receptors (Homo sapiens, UniProt P50406)
T1 construct: expressed in transfected cells
Assay: 5-HT6 receptor affinity (procedures outlined in WO98/27081)
Format: binding
Description: Compounds can be tested following the procedures outlined in WO98/27081.

Row | Structure (SMILES) | pKi values at human cloned 5-HT6 receptors
1 | O=S(=O)(c1ccccc1)c1cccc(N2CCNCC2)c1Cl [Example E2, 1-(3-Phenylsulfonyl-2-chlorophenyl)piperazine] | > 7.5
2 | O=S(=O)(c1ccccc1)c1ccc(Cl)c(N2CCNCC2)c1 [Example E3, 1-(5-Phenylsulfonyl-2-chlorophenyl)piperazine] | > 7.5
